{"source": "patent US20080275023A1", "about": "“N-Hydroxyamides Omege-Substituted with Tricyclic Groups as Histone Deacetylase Inhibitors, Their Preparation and Use in Pharmaceutical Formulations” (priority 2005, published 2008)", "tested_on": "histone deacetylase (HDAC), HeLa nuclear extract", "assay": "Deacetylase activity on nuclear extract of HeLa cells (Fluor de Lys kit)", "assay_type": "biochemical, human", "conditions": "0.1 μM compound, percent inhibition relative to control without inhibitor", "experimental": "The activity of the compounds as histone deacetylase (HDAC) inhibitors was measured using an in vitro acetylation assay. The compounds were then evaluated as inhibitors of proliferation of human tumor cell cultures.\nDeacetylase Activity on Nuclear Extract of Hela Cells (Human Cervical Cancer Cell)\nThe assay (Fluor de Lys™ kit, BioMol) is divided into two steps: in the first step the substrate which comprises an acetylated lysine residue is reacted with the nuclear extract (HeLa) containing the enzymatic activity in the presence and absence of inhibitors. In the second step a fluorogenic reagent is added which highlights the deacetylated residues. A reduction in fluorescence is obtained where there has been inhibition of the deacetylase activity. The result is finally expressed as percent inhibition relative to the control without inhibitor at a concentration of 1 μM."}
{"smiles": "O=C(CCCCCCC(=O)Nc1ccccc1)NO", "note": "[suberanilohydroxamic acid (SAHA), suberanilohydroxamic acid, reference compound]", "values": [{"measurement": "% inhib at 0.1 μM", "result": 55, "unit": "%"}]}
